PubChem BioAssay AID504774, Drosophila RNAi Screening Center | 2011
In all, the deposit lists about 23,000 reagents; this is an unselected part of those with a known target gene and a result. 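Values are quantile-normalised luminescence on an arbitrary scale; higher means more cells surviving MMS.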 Reagents against one gene are numbered here. A plus sign joins genes that one reagent is predicted to hit.

- Purpose: 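Knock-downs that shift viability of MMS-exposed cells relative to untreated ones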 (primary screen)
- Cell system: Drosophila Kc167 cells
- Knock-down reagent: long dsRNA against Drosophila genes, about 0.25 µg dsRNA per well
- Duration: about 6 days: 3 days knock-down, then 3 days with or without MMS
- Conditions: methyl methanesulphonate 0.004% (w/v) for 3 days after knock-down
- Measurement: 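Viability in wells given MMS, read as ATP luminescence, normalised by quantiles plate by plate and averaged across replicates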
- Scale: mean viability with MMS and viability with MMS: higher = more surviving cells after MMS

no.	gene	reagent	mean viability with MMS	viability with MMS, replicate 1	viability with MMS, replicate 2
1	CG9360	1	3.64e6	4.24e6	3.98e6
2	CG11977	1	3.50e6	3.97e6	3.98e6
3	Calx (Na/Ca-exchange protein)	1	3.49e6	3.95e6	3.97e6
4	Calx (Na/Ca-exchange protein)	2	3.72e6	4.15e6	4.18e6
5	Calx (Na/Ca-exchange protein)	3	3.53e6	4.11e6	3.90e6
6	Calx (Na/Ca-exchange protein)	4	3.51e6	4.04e6	3.93e6
7	CG15034	1	3.55e6	4.14e6	3.94e6
8	CG31007	1	3.63e6	4.12e6	4.05e6
9	CdGAPr (Cd GTPase activating protein-related)	1	3.50e6	3.95e6	3.99e6
10	CG5084	1	3.40e6	3.74e6	3.93e6
11	Pp4-19C (Protein phosphatase 19C)	1	3.49e6	3.95e6	3.98e6
12	Pp4-19C (Protein phosphatase 19C)	2	3.44e6	3.98e6	3.83e6
13	Pp4-19C (Protein phosphatase 19C)	3	3.63e6	4.21e6	4.05e6
14	hlk (hulk)	1	3.36e6	3.73e6	3.83e6
15	hlk (hulk)	2	3.29e6	3.64e6	3.68e6
16	CG10182	1	3.38e6	3.78e6	3.79e6
17	I-t (inhibitor-t)	1	3.52e6	4.01e6	3.97e6
18	l(2)37Cb (lethal (2) 37Cb)	1	3.53e6	3.91e6	4.09e6
19	cort (cortex)	1	1.74e6	3.91e6	3.90e6
20	CG10801	1	3.44e6	3.92e6	3.88e6
21	Set8 (SET domain containing 8)	1	3.47e6	3.95e6	3.89e6
22	Sbds (SBDS ribosome maturation factor)	1	3.62e6	4.10e6	4.11e6
23	pie (pineapple eye)	1	3.28e6	3.68e6	3.68e6
24	snu (snustorr)	1	3.60e6	3.99e6	4.17e6
25	Gas41	1	3.40e6	3.59e6	4.00e6
26	endos (endosulfine)	1	3.43e6	3.92e6	3.83e6
27	CG13705	1	3.59e6	3.98e6	4.18e6
28	CG13705	2	3.65e6	4.01e6	4.20e6
29	CG9449	1	3.51e6	3.94e6	4.01e6
30	viaf (viral IAP-associated factor)	1	3.63e6	4.03e6	4.21e6
31	Pdzd8 (PDZ domain containing 8)	1	3.31e6	3.77e6	3.78e6
32	Dbp21E2 (DEAD box protein 21E2)	1	3.80e6	4.12e6	4.53e6
33	CG31093	1	3.54e6	3.94e6	4.08e6
34	pre-mod(mdg4)-AD + mod(mdg4) + pre-mod(mdg4)-X + 3 more	1	3.60e6	4.21e6	3.95e6
35	CkIIbeta2 (Casein kinase II beta2 subunit)	1	3.51e6	4.05e6	3.91e6
36	CG12862	1	3.55e6	4.15e6	3.95e6
37	CG14495	1	3.52e6	3.89e6	4.08e6
38	CG14929 + CG4970	1	3.49e6	3.99e6	3.94e6
39	CG14929 + CG4970	2	3.36e6	3.96e6	3.61e6
40	BI-1 (Bax Inhibitor-1)	1	3.49e6	3.94e6	3.96e6
41	CG34193	1	3.63e6	4.21e6	3.97e6
42	mol (moladietz)	1	3.31e6	3.78e6	3.65e6
43	mol (moladietz)	2	3.50e6	4.13e6	3.79e6
44	mol (moladietz)	3	3.73e6	4.11e6	4.25e6
45	aft (adrift)	1	3.57e6	3.90e6	4.18e6
46	mora (morgana)	1	3.75e6	4.23e6	4.26e6
47	Prp5 (pre-mRNA processing factor 5)	1	3.49e6	3.97e6	3.93e6
48	CG10283	1	3.59e6	3.90e6	4.27e6
49	CYTB (retired record)	1	3.47e6	3.95e6	3.95e6
50	CG4887	1	3.62e6	4.07e6	4.17e6
51	CG4887	2	3.62e6	4.07e6	4.12e6
52	rsh (radish)	1	3.47e6	3.94e6	3.95e6
53	rsh (radish)	2	2.83e6	3.60e6	3.60e6
54	Fa2h (Fatty acid 2-hydroxylase)	1	3.52e6	3.98e6	4.01e6
55	Fa2h (Fatty acid 2-hydroxylase)	2	3.50e6	3.98e6	3.98e6
56	CG14391	1	3.47e6	3.95e6	3.96e6
57	eIF3m (eukaryotic translation initiation factor 3 subunit m)	1	3.04e6	3.62e6	3.58e6
58	AttC (Attacin-C)	1	3.56e6	4.08e6	4.04e6
59	heph (hephaestus)	1	3.48e6	4.02e6	3.90e6
60	heph (hephaestus)	2	3.53e6	4.01e6	4.01e6
61	heph (hephaestus)	3	3.41e6	3.91e6	3.83e6
62	heph (hephaestus)	4	3.83e6	4.38e6	4.28e6
63	Tab2 (TAK1-associated binding protein 2)	1	3.51e6	3.91e6	4.04e6
64	SecCl (Secretory chloride channel)	1	3.62e6	4.17e6	4.04e6
65	Psf3 (Partner of Sld Five 3)	1	3.55e6	3.89e6	4.14e6
66	Psf3 (Partner of Sld Five 3)	2	3.57e6	4.16e6	3.93e6
67	Gr59f (Gustatory receptor 59f)	1	3.65e6	4.03e6	4.25e6
68	cbt (cabut)	1	3.60e6	4.06e6	4.12e6

Reprinted from above, 7 entries:
no.	gene	reagent	mean viability with MMS	viability with MMS, replicate 1	viability with MMS, replicate 2
29	CG9449	1	3.51e6	3.94e6	4.01e6
30	viaf (viral IAP-associated factor)	1	3.63e6	4.03e6	4.21e6
31	Pdzd8 (PDZ domain containing 8)	1	3.31e6	3.77e6	3.78e6
32	Dbp21E2 (DEAD box protein 21E2)	1	3.80e6	4.12e6	4.53e6
33	CG31093	1	3.54e6	3.94e6	4.08e6
34	pre-mod(mdg4)-AD + mod(mdg4) + pre-mod(mdg4)-X + 3 more	1	3.60e6	4.21e6	3.95e6
35	CkIIbeta2 (Casein kinase II beta2 subunit)	1	3.51e6	4.05e6	3.91e6
